From patent US8637484B2, “Modulation of growth hormone receptor expression and insulin-like growth factor expression” (Antisense Therapeutic Limited, priority 2003, dated 2014)
Some of these results come from one statement about several compounds together. In the oligonucleotide strings, read from the 5' end, every base follows the letter of its sugar. An asterisk marks phosphorothioate; unmarked linkages are phosphodiester. Other units and linkages are bracketed, terminal groups are in braces. A string of capitals states the bases alone. e = 2'-O-(2-methoxyethyl) (MOE); [5mC] = 5-methylcytosine; d = 2'-deoxy (DNA)

Test system: mouse growth hormone receptor mRNA
Assay: Inhibition of mouse growth hormone receptor mRNA levels in b.END cells, quantitative real-time PCR
Type: cell-based
Design: concentration or dose not given beside the values
Conditions: averages from three experiments
Description: The mouse brain endothelial cell line b.END was obtained from Dr. Werner Risau at the Max Plank Instititute (Bad Nauheim, Germany). b.END cells were routinely cultured in DMEM, high glucose (Gibco/Life Technologies, Gaithersburg, Md.) supplemented with 10% fetal calf serum (Gibco/Life Technologies, Gaithersburg, Md.). Cells were routinely passaged by trypsinization and dilution when they reached 90% confluence. Cells were seeded into 96-well plates (Falcon-Primaria #3872) at a density of 3000 cells/well for use in RT-PCR analysis.
When cells reached 65-75% confluency, they were treated with oligonucleotide. For cells grown in 96-well plates, wells were washed once with 100 μL OPTI-MEM™-1 reduced-serum medium (Invitrogen Corporation, Carlsbad, Calif.) and then treated with 130 μL of OPTI-MEM™-1 containing 3.75 μg/mL LIPOFECTIN™ (Invitrogen Corporation, Carlsbad, Calif.) and the desired concentration of oligonucleotide. Cells are treated and data are obtained in triplicate. After 4-7 hours of treatment at 37° C., the medium was replaced with fresh medium. Cells were harvested 16-24 hours after oligonucleotide treatment.
Total RNA was isolated using an RNEASY 96™ kit and buffers purchased from Qiagen Inc. (Valencia, Calif.) following the manufacturer's recommended procedures. Briefly, for cells grown on 96-well plates, growth medium was removed from the cells and each well was washed with 200 μL cold PBS. 150 μL Buffer RLT was added to each well and the plate vigorously agitated for 20 seconds. 150 μL of 70% ethanol was then added to each well and the contents mixed by pipetting three times up and down. The samples were then transferred to the RNEASY 96™ well plate attached to a QIAVAC™ manifold fitted with a waste collection tray and attached to a vacuum source. Vacuum was applied for 1 minute. 500 μL of Buffer RW1 was added to each well of the RNEASY 96™ plate and incubated for 15 minutes and the vacuum was again applied for 1 minute. An additional 500 μL of Buffer RW1 was added to each well of the RNEASY 96™ plate and the vacuum was applied for 2 minutes. 1 mL of Buffer RPE was then added to each well of the RNEASY 96™ plate and the vacuum applied for a period of 90 seconds. The Buffer RPE wash was then repeated and the vacuum was applied for an additional 3 minutes. The plate was then removed from the QIAVAC™ manifold and blotted dry on paper towels. The plate was then re-attached to the QIAVAC™ manifold fitted with a collection tube rack containing 1.2 mL collection tubes. RNA was then eluted by pipetting 140 μL of RNAse free water into each well, incubating 1 minute, and then applying the vacuum for 3 minutes.
Quantitation of growth hormone receptor mRNA levels was accomplished by real-time quantitative PCR using the ABI PRISM™ 7600, 7700, or 7900 Sequence Detection System (PE-Applied Biosystems, Foster City, Calif.) according to manufacturer's instructions. This is a closed-tube, non-gel-based, fluorescence detection system which allows high-throughput quantitation of polymerase chain reaction (PCR) products in real-time. As opposed to standard PCR in which amplification products are quantitated after the PCR is completed, products in real-time quantitative PCR are quantitated as they accumulate. This is accomplished by including in the PCR reaction an oligonucleotide probe that anneals specifically between the forward and reverse PCR primers, and contains two fluorescent dyes. A reporter dye (e.g., FAM or JOE, obtained from either PE-Applied Biosystems, Foster City, Calif., Operon Technologies Inc., Alameda, Calif. or Integrated DNA Technologies Inc., Coralville, Iowa) is attached to the 5′ end of the probe and a quencher dye (e.g., TAMRA, obtained from either PE-Applied Biosystems, Foster City, Calif., Operon Technologies Inc., Alameda, Calif. or Integrated DNA Technologies Inc., Coralville, Iowa) is attached to the 3′ end of the probe. […]

Substance | % INHIB
aggcacaagagatcagcttc (eA*eG*eG*e[5mC]*eA*d[5mC]*dA*dA*dG*dA*dG*dA*dT*d[5mC]*dA*eG*e[5mC]*eT*eT*e[5mC]; antisense) [ISIS 227471] | at least 50%
gcattcaatttcctgaactg (eG*e[5mC]*eA*eT*eT*d[5mC]*dA*dA*dT*dT*dT*d[5mC]*d[5mC]*dT*dG*eA*eA*e[5mC]*eT*eG; antisense) [ISIS 227496] | at least 50%
tttgccaagagtagctggtg (eT*eT*eT*eG*e[5mC]*d[5mC]*dA*dA*dG*dA*dG*dT*dA*dG*d[5mC]*eT*eG*eG*eT*eG; antisense) [ISIS 227448] | at least 50%
cctccagtacctcggagttt (e[5mC]*e[5mC]*eT*e[5mC]*e[5mC]*dA*dG*dT*dA*d[5mC]*d[5mC]*dT*d[5mC]*dG*dG*eA*eG*eT*eT*eT; antisense) [ISIS 227506] | at least 50%
tgagaagatctggatcaatc (eT*eG*eA*eG*eA*dA*dG*dA*dT*d[5mC]*dT*dG*dG*dA*dT*e[5mC]*eA*eA*eT*e[5mC]; antisense) [ISIS 227465] | at least 50%
gcagttctatcagaactttg (eG*e[5mC]*eA*eG*eT*dT*d[5mC]*dT*dA*dT*d[5mC]*dA*dG*dA*dA*e[5mC]*eT*eT*eT*eG; antisense) [ISIS 227509] | at least 50%
atgtcctcttggttaaagct (eA*eT*eG*eT*e[5mC]*d[5mC]*dT*d[5mC]*dT*dT*dG*dG*dT*dT*dA*eA*eA*eG*e[5mC]*eT; antisense) [ISIS 227479] | at least 50%
gtactgaatttcatactcca (eG*eT*eA*e[5mC]*eT*dG*dA*dA*dT*dT*dT*d[5mC]*dA*dT*dA*e[5mC]*eT*e[5mC]*e[5mC]*eA; antisense) [ISIS 227458] | at least 50%
ccacgcacccacaagcggat (e[5mC]*e[5mC]*eA*e[5mC]*eG*d[5mC]*dA*d[5mC]*d[5mC]*d[5mC]*dA*d[5mC]*dA*dA*dG*e[5mC]*eG*eG*eA*eT; antisense) [ISIS 227511] | at least 50%
ttccactcaccccagttcat (eT*eT*e[5mC]*e[5mC]*eA*d[5mC]*dT*d[5mC]*dA*d[5mC]*d[5mC]*d[5mC]*d[5mC]*dA*dG*eT*eT*e[5mC]*eA*eT; antisense) [ISIS 227508] | at least 50%
ttgtagttatcatgaatgcc (eT*eT*eG*eT*eA*dG*dT*dT*dA*dT*d[5mC]*dA*dT*dG*dA*eA*eT*eG*e[5mC]*e[5mC]; antisense) [ISIS 227466] | at least 50%
tggctttcccttttagcata (eT*eG*eG*e[5mC]*eT*dT*dT*d[5mC]*d[5mC]*d[5mC]*dT*dT*dT*dT*dA*eG*e[5mC]*eA*eT*eA; antisense) [ISIS 227450] | at least 50%
gtccttgctccaggttagca (eG*eT*e[5mC]*e[5mC]*eT*dT*dG*d[5mC]*dT*d[5mC]*d[5mC]*dA*dG*dG*dT*eT*eA*eG*e[5mC]*eA; antisense) [ISIS 227507] | at least 50%
ctgaactcgctgtacttttc (e[5mC]*eT*eG*eA*eA*d[5mC]*dT*d[5mC]*dG*d[5mC]*dT*dG*dT*dA*d[5mC]*eT*eT*eT*eT*e[5mC]; antisense) [ISIS 227459] | at least 50%
cactgttcatgctgtaattt (e[5mC]*eA*e[5mC]*eT*eG*dT*dT*d[5mC]*dA*dT*dG*d[5mC]*dT*dG*dT*eA*eA*eT*eT*eT; antisense) [ISIS 227477] | at least 50%
ctccagacgtgacccgactc (e[5mC]*eT*e[5mC]*e[5mC]*eA*dG*dA*d[5mC]*dG*dT*dG*dA*d[5mC]*d[5mC]*d[5mC]*eG*eA*e[5mC]*eT*e[5mC]; antisense) [ISIS 227510] | at least 50%
acgacacttggtgaatcgag (eA*e[5mC]*eG*eA*e[5mC]*dA*d[5mC]*dT*dT*dG*dG*dT*dG*dA*dA*eT*e[5mC]*eG*eA*eG; antisense) [ISIS 227449] | at least 50%
ttggctttccctggaggttc (eT*eT*eG*eG*e[5mC]*dT*dT*dT*d[5mC]*d[5mC]*d[5mC]*dT*dG*dG*dA*eG*eG*eT*eT*e[5mC]; antisense) [ISIS 227516] | at least 50%
